Results: the supplement of paper PMC12889115
Some of the results follow. Values are raw readings; no control value is given beside them.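 Primary screen: polymyxin B was added at a level permeabilizing Salmonella outer membranes while sparing inner membranes. DMSO wells, both with and without polymyxin B, established maximum growth. Plate-to-plate variation meant each plate was ranked on its own, and the lowest-OD600 compounds were selected as hits.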

Test system: Salmonella enterica serovar Typhimurium SL1344
Assay: bacterial growth OD600 after 18 h with compound and polymyxin B; higher = more bacterial growth (less inhibition)
Conditions: 50 µM, Mueller-Hinton broth

Row | SMILES | bacterial growth OD600 (polymyxin B 1 µg/mL) | bacterial growth OD600 (polymyxin B 0.75 µg/mL)
1 | Cc1ccc(C(=O)N(CCN2CCCCC2)CC2CCCN(C3CCCC3)C2)s1 (configuration not stated) | 0.748 | 
2 | O=C(CC(c1ccccc1)c1ccccc1Cl)N1CCCC1 (configuration not stated) | 0.003 | 
3 | O=C(NCc1cccnc1-n1cnc2ccccc21)c1ccsc1 | 0.88 | 
4 | COc1cc(NC(=O)CCC2CCCN(C(=O)C(=O)c3ccco3)C2)cc(OC)c1 (configuration not stated) |  | 0.878
5 | COCCNC(=O)c1ccc(OC2CCN(Cc3ccc(F)c(OC)c3)CC2)c(Cl)c1 | 0.828 | 
6 | Cc1ccccc1Oc1ncccc1CNC(=O)C(C)N1CCCC1=O (configuration not stated) | 0.865 | 
7 | CN(C(=O)CC(c1ccccc1)c1ccccc1Cl)C1CCOCC1 (configuration not stated) |  | 0.031
8 | COC(=O)CNC(=O)CC(c1ccccc1)c1ccc(OC)cc1 (configuration not stated) | 0.87 | 
9 | COc1ccc(CCNc2nncc(-c3ccccc3C)n2)c(OC)c1 |  | 0.269
10 | CCC(C)CCNc1ccc(C(=O)N2CCCN(c3ncccn3)CC2)cn1 (configuration not stated) |  | 0.645
11 | Cc1cccc(N2CCN(C(=O)c3cn(CC(C)C)cc(C(=O)N4CCCCCC4)c3=O)CC2)c1C |  | 0.792
12 | CC(=O)c1cccc(OCc2cc(C(=O)N3CCCC(O)C3)n[nH]2)c1 (configuration not stated) | 0.93 | 
13 | COc1ccccc1N1CCN(c2nc(CNC(=O)c3ccc(F)c(F)c3)nc3ccccc23)CC1 |  | 0.799
14 | Cc1ccc(-n2cc(CN3CCN(Cc4ccccc4F)C(CCO)C3)cn2)cc1 (configuration not stated) | 0.968 | 
15 | Cc1ccccc1N1CCN(C2CCCN(C(=O)c3ccc(F)cc3)C2)CC1 (configuration not stated) | 1.06 | 
16 | COc1cccc(OC)c1-c1cnnc(NCCc2nc(C)c3c(n2)CCC3)n1 | 0.917 | 

Row | SMILES | bacterial growth OD600 (polymyxin B 1 µg/mL) | bacterial growth OD600 (polymyxin B 0.75 µg/mL)
17 | Cc1nnc(-c2cccc(NC(=O)C3CCCCN3C(=O)C3CCCCC3)c2)s1 (configuration not stated) | 1.03 | 
18 | OCC1(Cc2ccccc2F)CCCN(Cc2c(F)ccc(F)c2F)C1 (configuration not stated) | 0.055 | 
19 | CC(C)c1noc(-c2ccc(NC3CCSC3)nc2)n1 (configuration not stated) |  | 0.836
20 | CN(C)C1(CNC(=O)c2coc(COc3ccccc3)n2)CCCCC1 |  | 0.83
21 | CN(Cc1ccccc1)C(=O)c1nc2ccccn2c1CNCc1ccc(F)cc1F | 0.016 | 
22 | COCc1ccc(CN2CCCC(C(=O)c3cc(C)c(OC)c(C)c3)C2)o1 (configuration not stated) | 0.759 | 
23 | COc1ccc(C(=O)NC(C)c2cnn(-c3ccccc3C)c2C)cc1 (configuration not stated) | 0.955 | 
24 | Cc1cc(C)n(Cc2cc(C(=O)N(C)Cc3csc(C)n3)n[nH]2)n1 | 1.15 | 
25 | CC1(C)Cc2c(cnn2-c2ccccc2)C(NC2CCOCC2)C1 (configuration not stated) | 0.963 | 
26 | COC(=O)CN(C)C(=O)CC1(c2ccccc2)CC(=O)N(CCCOc2cccnc2)C1=O (configuration not stated) |  | 0.913
27 | CCOC(=O)C1(C/C=C/c2ccccc2)CCCN(C(=O)CCn2ccc(C)n2)C1 (configuration not stated) | 0.025 | 
28 | CCc1csc(CNC(=O)c2ccc(NC3CCC3)nc2)n1 | 0.805 | 
29 | CSc1ccc(C(=O)NCc2nc(-c3ccc(NC(=O)Cc4ccccc4)cc3)oc2C)cc1 |  | 0.862
30 | CCCn1ncc(CN2CCN(Cc3ccccc3OCC)C(CCO)C2)c1C (configuration not stated) | 1.01 | 
31 | O[C@H]1CN(C/C=C/c2ccccc2)C[C@@H]1N1CCN(c2ccccn2)CC1 | 0.964 | 
32 | CCC(C)C(=O)NCC1Cc2cccc(-c3ncccc3C)c2O1 (configuration not stated) |  | 0.795

A few values from above.
bacterial growth OD600 (polymyxin B 1 µg/mL), Cc1nnc(-c2cccc(NC(=O)C3CCCCN3C(=O)C3CCCCC3)c2)s1 (configuration not stated) is entered as 1.03
bacterial growth OD600 (polymyxin B 1 µg/mL), CN(Cc1ccccc1)C(=O)c1nc2ccccn2c1CNCc1ccc(F)cc1F is entered as 0.016
